Assay results taken from patent US20040024191.

The chains behind the UniProt entries cited, without tags or fusion partners.
UniProt O35690, whole entry: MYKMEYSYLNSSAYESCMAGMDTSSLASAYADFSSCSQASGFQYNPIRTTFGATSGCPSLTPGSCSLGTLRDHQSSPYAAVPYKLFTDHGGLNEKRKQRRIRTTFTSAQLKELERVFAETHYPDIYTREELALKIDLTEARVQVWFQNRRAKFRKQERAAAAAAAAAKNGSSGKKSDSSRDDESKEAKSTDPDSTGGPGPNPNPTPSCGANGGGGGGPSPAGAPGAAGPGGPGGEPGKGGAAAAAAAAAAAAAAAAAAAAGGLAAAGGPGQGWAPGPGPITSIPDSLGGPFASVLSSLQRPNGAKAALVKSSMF
UniProt Q62066, whole entry: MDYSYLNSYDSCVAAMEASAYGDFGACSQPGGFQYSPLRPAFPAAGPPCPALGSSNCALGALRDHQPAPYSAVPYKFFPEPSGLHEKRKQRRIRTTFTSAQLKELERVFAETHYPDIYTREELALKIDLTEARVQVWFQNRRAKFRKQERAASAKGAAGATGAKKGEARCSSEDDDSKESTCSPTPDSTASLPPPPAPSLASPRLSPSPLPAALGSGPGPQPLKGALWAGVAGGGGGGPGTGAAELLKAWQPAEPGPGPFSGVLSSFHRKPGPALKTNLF

Tests used:
[1] = molecular target: Phox2b (full-length, transfected) (UniProt O35690); test: activity in cells; settings: 1xII-CAT in HeLa; protein in cells; protein details: pRc/CMV; only the site is given
[2] = molecular target: Phox2a (full-length, transfected) (UniProt Q62066); test: activity in cells; settings: 1xII-CAT in HeLa; protein in cells; protein details: pRc/CMV; only the site is given

CCGCTAGACAAATGTGATTACC (double strand) [PBS2 (domain II)]
activity on this sequence [1]: active
activity on this sequence [2]: active
